No constants are given. Whether binding was seen depends on the method and setting. A result given as binding can be weak or reduced; the word gives no strength. For some of these results: Tags and fused reporters may be left off the sequences shown. For some of these results: In cells and extracts the contact can be indirect.

Protein sequences, listed by entry. Tags and fused reporters are not part of them. Lines headed by an entry give the natural chain unless they say otherwise; changes in a name come on top.
UniProt A0A0H2Z644: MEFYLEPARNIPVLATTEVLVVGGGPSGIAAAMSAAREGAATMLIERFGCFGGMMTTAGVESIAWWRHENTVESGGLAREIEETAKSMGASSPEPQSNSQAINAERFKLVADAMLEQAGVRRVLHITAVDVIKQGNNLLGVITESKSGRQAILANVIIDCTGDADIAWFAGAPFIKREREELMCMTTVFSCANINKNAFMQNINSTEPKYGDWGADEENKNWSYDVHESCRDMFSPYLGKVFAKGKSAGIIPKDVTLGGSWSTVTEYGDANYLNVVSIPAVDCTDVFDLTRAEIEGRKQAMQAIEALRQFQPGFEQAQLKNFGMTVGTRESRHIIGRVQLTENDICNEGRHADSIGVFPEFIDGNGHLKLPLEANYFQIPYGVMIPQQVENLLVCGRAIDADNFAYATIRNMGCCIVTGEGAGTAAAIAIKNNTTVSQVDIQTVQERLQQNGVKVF

For assay [1], the target named is T1, GST-tagged Caspr1(203–355) peptide (human) (UniProt P78357).
T1 sequence: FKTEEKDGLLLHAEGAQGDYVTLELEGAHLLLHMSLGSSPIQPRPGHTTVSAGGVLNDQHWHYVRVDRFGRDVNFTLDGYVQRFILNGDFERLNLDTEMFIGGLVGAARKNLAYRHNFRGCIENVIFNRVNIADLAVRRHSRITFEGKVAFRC
In words: ELISA; MaxiSorp plates coated with GST-tagged Caspr1(203–355) (4 µg/well), blocked with 1% BSA, His-tagged IbeA applied 2 h at 37 °C then overnight at 4 °C; anti-His, HRP, TMB, read at 370 nm; both purified. On the technique in general: ELISA stands for enzyme-linked immunosorbent assay.

Assay [2] has as its target GST-IbeA (E. coli). Put plainly: pull-down; GST-IbeA or its GST-tagged truncated forms prebound to Glutathione Sepharose 4B, incubated overnight at 4 °C with in vitro translated (TNT) His-tagged Caspr1 fragments; blot with anti-His; only the target purified.
The target of assay [3] is GST-IbeA (E. coli). Put plainly: pull-down; GST-IbeA prebound to Glutathione Sepharose 4B, incubated overnight at 4 °C with lysate of HEK293T cells transfected with His-tagged Caspr1 forms; binding buffer 20 mM Tris, 50 mM NaCl, 10% glycerol, 1% Nonidet P-40; blot with anti-His; only the target purified.
Assay [4] has as its target GST-tagged IbeA(229–342) (E. coli). In words: pull-down; GST-IbeA or its GST-tagged truncated forms prebound to Glutathione Sepharose 4B, incubated overnight at 4 °C with in vitro translated (TNT) His-tagged Caspr1 fragments; blot with anti-His; only the target purified.
Assay [5] deals with GST-IbeA (E. coli). Put plainly: pull-down; GST fusion proteins prebound to Glutathione Sepharose 4B, incubated overnight at 4 °C with HBMECs lysate; binding buffer 20 mM Tris, 50 mM NaCl, 10% glycerol, 1% Nonidet P-40; blot with Caspr1 antibody; only the target purified.

On to “recombinant His-tagged IbeA protein (from UniProt A0A0H2Z644)”, for which, in assay [1], the binding entry is “binds”.

B1: Caspr1(203–538), His-tagged, in vitro translated (domain or fragment, UniProt P78357 203-538)
chain: FKTEEKDGLLLHAEGAQGDYVTLELEGAHLLLHMSLGSSPIQPRPGHTTVSAGGVLNDQHWHYVRVDRFGRDVNFTLDGYVQRFILNGDFERLNLDTEMFIGGLVGAARKNLAYRHNFRGCIENVIFNRVNIADLAVRRHSRITFEGKVAFRCLDPVPHPINFGGPHNFVQVPGFPRRGRLAVSFRFRTWDLTGLLLFSRLGDGLGHVELTLSEGQVNVSIAQSGRKKLQFAAGYRLNDGFWHEVNFVAQENHAVISIDDVEGAEVRVSYPLLIRTGTSYFFGGCPKPASRWDCHSNQTAFHGCMELLKVDGQLVNLTLVEGRRLGFYAEVLFDTC
B1: the binding entry in assay [2] is given as “binds”.

B2: Caspr1(203–538), His-tagged, expressed in HEK293T cells (domain or fragment, UniProt P78357 203-538)
chain: FKTEEKDGLLLHAEGAQGDYVTLELEGAHLLLHMSLGSSPIQPRPGHTTVSAGGVLNDQHWHYVRVDRFGRDVNFTLDGYVQRFILNGDFERLNLDTEMFIGGLVGAARKNLAYRHNFRGCIENVIFNRVNIADLAVRRHSRITFEGKVAFRCLDPVPHPINFGGPHNFVQVPGFPRRGRLAVSFRFRTWDLTGLLLFSRLGDGLGHVELTLSEGQVNVSIAQSGRKKLQFAAGYRLNDGFWHEVNFVAQENHAVISIDDVEGAEVRVSYPLLIRTGTSYFFGGCPKPASRWDCHSNQTAFHGCMELLKVDGQLVNLTLVEGRRLGFYAEVLFDTC
Take B2: in assay [3], the binding entry is reported as “binds”.

B3: Caspr1(203–355), His-tagged, in vitro translated (domain or fragment, UniProt P78357 203-355)
chain: FKTEEKDGLLLHAEGAQGDYVTLELEGAHLLLHMSLGSSPIQPRPGHTTVSAGGVLNDQHWHYVRVDRFGRDVNFTLDGYVQRFILNGDFERLNLDTEMFIGGLVGAARKNLAYRHNFRGCIENVIFNRVNIADLAVRRHSRITFEGKVAFRC
On to B3, for which the binding result in assay [4] and in assay [2] was “binds” throughout.

B4: His-tagged full-length Caspr1 (receptor, UniProt P78357 20-1384)
chain: WGYYGCDEELVGPLYARSLGASSYYSLLTAPRFARLHGISGWSPRIGDPNPWLQIDLMKKHRIRAVATQGSFNSWDWVTRYMLLYGDRVDSWTPFYQRGHNSTFFGNVNESAVVRHDLHFHFTARYIRIVPLAWNPRGKIGLRLGLYGCPYKADILYFDGDDAISYRFPRGVSRSLWDVFAFSFKTEEKDGLLLHAEGAQGDYVTLELEGAHLLLHMSLGSSPIQPRPGHTTVSAGGVLNDQHWHYVRVDRFGRDVNFTLDGYVQRFILNGDFERLNLDTEMFIGGLVGAARKNLAYRHNFRGCIENVIFNRVNIADLAVRRHSRITFEGKVAFRCLDPVPHPINFGGPHNFVQVPGFPRRGRLAVSFRFRTWDLTGLLLFSRLGDGLGHVELTLSEGQVNVSIAQSGRKKLQFAAGYRLNDGFWHEVNFVAQENHAVISIDDVEGAEVRVSYPLLIRTGTSYFFGGCPKPASRWDCHSNQTAFHGCMELLKVDGQLVNLTLVEGRRLGFYAEVLFDTCGITDRCSPNMCEHDGRCYQSWDDFICYCELTGYKGETCHTPLYKESCEAYRLSGKTSGNFTIDPDGSGPLKPFVVYCDIRENRAWTVVRHDRLWTTRVTGSSMERPFLGAIQYWNASWEEVSALANASQHCEQWIEFSCYNSRLLNTAGGYPYSFWIGRNEEQHFYWGGSQPGIQRCACGLDRSCVDPALYCNCDADQPQWRTDKGLLTFVDHLPVTQVVIGDTNRSTSEAQFFLRPLRCYGDRNSWNTISFHTGAALRFPPIRANHSLDVSFYFRTSAPSGVFLENMGGPYCQWRRPYVRVELNTSRDVVFAFDVGNGDENLTVHSDDFEFNDDEWHLVRAEINVKQARLRVDHRPWVLRPMPLQTYIWMEYDQPLYVGSAELKRRPFVGCLRAMRLNGVTLNLEGRANASEGTSPNCTGHCAHPRLPCFHGGRCVERYSYYTCDCDLTAFDGPYCNHDIGGFFEPGTWMRYNLQSALRSAAREFSHMLSRPVPGYEPGYIPGYDTPGYVPGYHGPGYRLPDYPRPGRPVPGYRGPVYNVTGEEVSFSFSTSSAPAVLLYVSSFVRDYMAVLIKDDGTLQLRYQLGTSPYVYQLTTRPVTDGQPHSINITRVYRNLFIQVDYFPLTEQKFSLLVDSQLDSPKALYLGRVMETGVIDPEIQRYNTPGFSGCLSGVRFNNVAPLKTHFRTPRPMTAELAEALRVQGELSESNCGAMPRLVSEVPPELDPWYLPPDFPYYHDEGWVAILLGFLVAFLLLGLVGMLVLFYLQNHRYKGSYHTNEPKAAHEYHPGSKPPLPTSGPAQVPTPTAAPNQAPASAPAPAPTPAPAPGPRDQNLPQILEESRSE
B4: the binding result in assay [3] was “binds”.

B5: endogenous Caspr1 in HBMECs (receptor, UniProt P78357 20-1384)
chain: WGYYGCDEELVGPLYARSLGASSYYSLLTAPRFARLHGISGWSPRIGDPNPWLQIDLMKKHRIRAVATQGSFNSWDWVTRYMLLYGDRVDSWTPFYQRGHNSTFFGNVNESAVVRHDLHFHFTARYIRIVPLAWNPRGKIGLRLGLYGCPYKADILYFDGDDAISYRFPRGVSRSLWDVFAFSFKTEEKDGLLLHAEGAQGDYVTLELEGAHLLLHMSLGSSPIQPRPGHTTVSAGGVLNDQHWHYVRVDRFGRDVNFTLDGYVQRFILNGDFERLNLDTEMFIGGLVGAARKNLAYRHNFRGCIENVIFNRVNIADLAVRRHSRITFEGKVAFRCLDPVPHPINFGGPHNFVQVPGFPRRGRLAVSFRFRTWDLTGLLLFSRLGDGLGHVELTLSEGQVNVSIAQSGRKKLQFAAGYRLNDGFWHEVNFVAQENHAVISIDDVEGAEVRVSYPLLIRTGTSYFFGGCPKPASRWDCHSNQTAFHGCMELLKVDGQLVNLTLVEGRRLGFYAEVLFDTCGITDRCSPNMCEHDGRCYQSWDDFICYCELTGYKGETCHTPLYKESCEAYRLSGKTSGNFTIDPDGSGPLKPFVVYCDIRENRAWTVVRHDRLWTTRVTGSSMERPFLGAIQYWNASWEEVSALANASQHCEQWIEFSCYNSRLLNTAGGYPYSFWIGRNEEQHFYWGGSQPGIQRCACGLDRSCVDPALYCNCDADQPQWRTDKGLLTFVDHLPVTQVVIGDTNRSTSEAQFFLRPLRCYGDRNSWNTISFHTGAALRFPPIRANHSLDVSFYFRTSAPSGVFLENMGGPYCQWRRPYVRVELNTSRDVVFAFDVGNGDENLTVHSDDFEFNDDEWHLVRAEINVKQARLRVDHRPWVLRPMPLQTYIWMEYDQPLYVGSAELKRRPFVGCLRAMRLNGVTLNLEGRANASEGTSPNCTGHCAHPRLPCFHGGRCVERYSYYTCDCDLTAFDGPYCNHDIGGFFEPGTWMRYNLQSALRSAAREFSHMLSRPVPGYEPGYIPGYDTPGYVPGYHGPGYRLPDYPRPGRPVPGYRGPVYNVTGEEVSFSFSTSSAPAVLLYVSSFVRDYMAVLIKDDGTLQLRYQLGTSPYVYQLTTRPVTDGQPHSINITRVYRNLFIQVDYFPLTEQKFSLLVDSQLDSPKALYLGRVMETGVIDPEIQRYNTPGFSGCLSGVRFNNVAPLKTHFRTPRPMTAELAEALRVQGELSESNCGAMPRLVSEVPPELDPWYLPPDFPYYHDEGWVAILLGFLVAFLLLGLVGMLVLFYLQNHRYKGSYHTNEPKAAHEYHPGSKPPLPTSGPAQVPTPTAAPNQAPASAPAPAPTPAPAPGPRDQNLPQILEESRSE
Turning to B5, in assay [5], the binding result is “binds”.

Source of the values: article PMC5997682.
